Molecules are shown by their SMILES. Values joined by “and” are separate entries in the source; they are usually repeats but may differ in a detail not shown here. Equal entries are not always repeated. Structures can show the parent of a compound that is named as a salt. ± gives the standard deviation of the averaged measurements. The list shows a part of the results. Baselines shift from plate to plate; read single values as rough.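 Primary human stellate myofibroblasts activated in culture; inactivation shown by regained lipid droplets. Readout: fraction of Hoechst-counted cells exceeding a per-plate Bodipy threshold, duplicate wells, each plate with DMSO negative and nortriptyline positive controls. Hits: control-normalized score beyond the plate's top-tenth-percentile nortriptyline wells, or among its three best wells. Final well concentrations unstated.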

Results on 34 compounds are retold here after the supplement of paper PMC9135407.

The test deals with primary human hepatic stellate cells (donor 1). As to the kind of experiment: percent Bodipy-positive cells; higher = more lipid droplet accumulation. Particulars: 48 h.
The mark [1] stands for this setting: library stock concentration: 10 mM.
[2] abbreviates: library stock concentration: 80 uM.
The mark [3] stands for this setting: library stock concentration: 400 uM.
Where [4] appears, read: library stock concentration: 2 mM.
The mark [5] stands for this setting: library stock concentration: 3.33 mM.
Where [6] appears, read: library stock concentration: 1 mM.
The mark [7] stands for this setting: library stock concentration: 10.6 mM.
[8] abbreviates: library stock concentration: 6.3 mM.

Regarding `Nc1nc(N)nc(-c2cc(Cl)ccc2Cl)n1`, the “percent Bodipy-positive cells” value under setting [1] worked out at 12.5 ± 1.3%. For `CCCS(=O)(=O)Nc1ccc(F)c(C(=O)c2c[nH]c3ncc(Cl)cc23)c1F`, the “percent Bodipy-positive cells” value is 9.41 ± 4.6% under setting [2]; 9.61% and 16.7% under setting [3]; 10.9% and 10.3% under setting [4]; 6.65 ± 3% under setting [5]; 17.9% and 12.6% under setting [1]. As to `CCCCCCCCCCCCCCCC(O)C(N)CO` (racemic) [DL-Dihydrosphingosine], the “percent Bodipy-positive cells” value under setting [6] was determined as 6.57 ± 6.9%.

Take `S=P(N1CC1)(N1CC1)N1CC1` [Thiotepa]: the “percent Bodipy-positive cells” value runs as follows: under setting [1], 27 ± 4.5%; under setting [7], 13.4 ± 1.1%. On to `COc1cc(N)c(Cl)cc1C(=O)NC1CCN(Cc2ccccc2)CC1` [Clebopride maleate], for which the “percent Bodipy-positive cells” value came out at 43.7 ± 6.8%. Under setting [1], the “percent Bodipy-positive cells” value stood at 48.2 ± 12%. Consider `O=C(Nc1cc(Cl)cc2c1[nH]c1cnccc12)c1cccnc1` [IKK Inhibitor X], for which the “percent Bodipy-positive cells” value under setting [5] is 17.6 ± 6.7%.

`CCCC[C@H](C)C[C@H](O)/C=C/[C@H]1[C@H](O)CC(=O)[C@@H]1CCCC/C=C/C(=O)O` [Limaprost]: the “percent Bodipy-positive cells” value under setting [6] was determined as 21.6 ± 7%. `C[C@@H](O)[C@H]1C(=O)N2C(C(=O)OCOC(=O)C(C)(C)C)=C(SC3CN(C4=NCCS4)C3)[C@H](C)[C@H]12` [Tebipenem Pivoxil]: the “percent Bodipy-positive cells” value was 5.81 ± 2.7% under setting [5] and 10.5 ± 0.31% under setting [1]. Turning to `CCCCOc1ccc(OCCCN2CCOCC2)cc1` [Pramoxine hydrochloride], the “percent Bodipy-positive cells” value amounted to 27.7 ± 5.7%. For the setting “library stock concentration: 6.1 mM”, the “percent Bodipy-positive cells” value turned out to be 48.4 ± 4%. The “percent Bodipy-positive cells” value under setting [1] was 58.1 ± 16%. Consider `CCCCOc1ccc(OCCCN2CCOCC2)cc1` [Pramoxine HCl], for which the “percent Bodipy-positive cells” value by setting is: under setting [5], 16.2 ± 4.1%; under setting [1], 67.249 ± 0.035%. As to `CC1CCc2cc(F)cc3c(=O)c(C(=O)O)cn1c23` (stereo not drawn) [Flumequine], the “percent Bodipy-positive cells” value came to 25.4 ± 0.83%. In addition, under setting [5], the “percent Bodipy-positive cells” value is 7.43 ± 1.2%. Besides, under “library stock concentration: 7.7 mM”, the “percent Bodipy-positive cells” value stood at 10.4 ± 2%. Further, the “percent Bodipy-positive cells” value under setting [1] was 24.3% and 25%. Take `O=C(NCC1CCCCN1)c1cc(OCC(F)(F)F)ccc1OCC(F)(F)F` (stereo not drawn) [Flecainide]: the “percent Bodipy-positive cells” value (library stock concentration: 4.8 mM) is 16.7 ± 4.7%.

Take `O=C(NCC1CCCCN1)c1cc(OCC(F)(F)F)ccc1OCC(F)(F)F` (stereo not drawn) [Flecainide acetate]: the “percent Bodipy-positive cells” value is 15.5 ± 3.7%. The “percent Bodipy-positive cells” value under setting [1] amounted to 30.2 ± 4.6%. Besides, the “percent Bodipy-positive cells” value under setting [7] was 46.5 ± 1.7%.

As to `COc1cc(N2CCC(N3CCN(C)CC3)CC2)ccc1Nc1ncc(Cl)c(Nc2ccccc2S(=O)(=O)C(C)C)n1`, the “percent Bodipy-positive cells” value under setting [2] stood at 8.5 ± 1.5%, the “percent Bodipy-positive cells” value under setting [3] is 23.7 ± 3.5%, the “percent Bodipy-positive cells” value under setting [4] was 63.55 ± 0.17% and the “percent Bodipy-positive cells” value under setting [1] was 73.042 ± 0.027%. On to `CC1(C)S[C@@H]2[C@H](/N=C/N3CCCCCC3)C(=O)N2[C@H]1C(=O)O`, for which, under setting [1], the “percent Bodipy-positive cells” value worked out at 7.91 ± 3.6%. Regarding `CC(C)c1nc(CN(C)C(=O)N[C@H](C(=O)N[C@@H](Cc2ccccc2)C[C@H](O)[C@H](Cc2ccccc2)NC(=O)OCc2cncs2)C(C)C)cs1` [Ritonavir], the “percent Bodipy-positive cells” value by setting is: under setting [5], 8.04 ± 1.1%; under setting [1], 19.3 ± 6.4%. On to `CC(C)c1nc(CN(C)C(=O)N[C@H](C(=O)N[C@@H](Cc2ccccc2)C[C@H](O)[C@H](Cc2ccccc2)NC(=O)OCc2cncs2)C(C)C)cs1`, for which the “percent Bodipy-positive cells” value under setting [1] worked out at 20.6 ± 10%. For the compound `O=C(CCCCc1ccccc1)C(F)(F)C(F)(F)F`, the “percent Bodipy-positive cells” value under setting [6] worked out at 8.47 ± 2%. Take `CCCOC(=O)c1c(-c2ccccc2)nc(CC)c(C(=O)SCC)c1CCC`: the “percent Bodipy-positive cells” value under setting [1] amounted to 63.3 ± 10%.

As for `COc1ccccc1OCCNCC(O)COc1cccc2[nH]c3ccccc3c12` (stereo not drawn) [Carvedilol], the “percent Bodipy-positive cells” value was 19.7 ± 7.3% under setting [5]; 33.4% and 49.7% (library stock concentration: 4.9 mM). In the case of `COc1ccccc1OCCNCC(O)COc1cccc2[nH]c3ccccc3c12` (stereo not drawn) [Carvedilol tartrate], the “percent Bodipy-positive cells” value under setting [1] was 53.9 ± 4.5%. For `Nc1cccc(-c2cc3c(Oc4cccc(O)c4)ncnc3[nH]2)c1`, the “percent Bodipy-positive cells” value reads like this: under setting [2], 18.05 ± 0.18%; under setting [3], 9.97 ± 2.9%; under setting [4], 21.5 ± 2%; under setting [5], 19.6 ± 3.4%; under setting [1], 44.1% and 31.6%. Consider `CC(C)[C@H]1CC[C@H](C(=O)N[C@H](Cc2ccccc2)C(=O)O)CC1` [Nateglinide], for which the “percent Bodipy-positive cells” value runs as follows: under setting [5], 12.7 ± 6.5%; under setting [8], 9.54 ± 2.8%. Regarding `CC(C)[C@H]1CC[C@H](C(=O)N[C@H](Cc2ccccc2)C(=O)O)CC1`, the “percent Bodipy-positive cells” value under setting [1] was determined as 9.46 ± 7.4%. For `CC(C)[C@H]1CC[C@H](C(=O)N[C@H](Cc2ccccc2)C(=O)O)CC1` [nateglinide], under setting [8], the “percent Bodipy-positive cells” value was found to be 7.67 ± 2.9%. As for `COc1c(O)cc2c(c1O)[C@@H]1O[C@H](CO)[C@@H](O)[C@H](O)[C@H]1OC2=O` [Bergenin], the “percent Bodipy-positive cells” value by setting is: under setting [5], 10.2 ± 1.9%; under setting [1], 10.2 ± 4%.

Consider `COc1c(O)cc2c(c1O)[C@@H]1O[C@H](CO)[C@@H](O)[C@H](O)[C@H]1OC2=O`, for which the “percent Bodipy-positive cells” value under setting [1] is 32.8 ± 10%. On to `COc1c(O)cc2c(c1O)[C@@H]1O[C@H](CO)[C@@H](O)[C@H](O)[C@H]1OC2=O` [Bergenin monohydrate], for which the “percent Bodipy-positive cells” value worked out at 10.8 ± 0.66%. Consider `CCCCCC(=O)/C=C/C=C\C/C=C\C/C=C\CCCC(=O)O` [15-Ketoicosatetraenoic acid], for which the “percent Bodipy-positive cells” value (library stock concentration: 100 uM) turned out to be 11 ± 6.8%. Turning to `COc1ccc(CCCOC(Cn2ccnc2)c2ccc(OC)cc2)cc1` (stereo not drawn), the “percent Bodipy-positive cells” value came out at 11.2 ± 0.76% under setting [6] and 57.9 ± 3.8% (library stock concentration: 13.6 mM). Consider `COc1ccc(-n2nc(C(N)=O)c3c2C(=O)N(c2ccc(N4CCCCC4=O)cc2)CC3)cc1` [Apixaban], for which the “percent Bodipy-positive cells” value runs as follows: under setting [5], 11.9 ± 2.1%; under setting [1], 16 ± 2.7%. `CN1CCN(C2=Nc3cc(Cl)ccc3Nc3ccccc32)CC1` [Clozapine]: the “percent Bodipy-positive cells” value worked out at 83.5 ± 4.7%. Turning to `COc1ccc(C(C)=O)c(O)c1` [Paeonol], the “percent Bodipy-positive cells” value reads like this: under setting [5], 8.99 ± 4.5%; under setting [1], 16.5 ± 2.7%. On to `c1ccc(N2CCN(CCCOc3ccc4c(c3)OCO4)CC2)cc1` [BP 554 maleate], for which the “percent Bodipy-positive cells” value under setting [1] worked out at 10.7 ± 1.4%.
